Laboratory results as given in the supplement of paper PMC10849652.
The other results are listed elsewhere or left out.

Sequences of proteins named here, by UniProt entry; tags and fusion partners are left off. A change or cut given only in a name is not applied to a line headed by its entry.
UniProt P98172: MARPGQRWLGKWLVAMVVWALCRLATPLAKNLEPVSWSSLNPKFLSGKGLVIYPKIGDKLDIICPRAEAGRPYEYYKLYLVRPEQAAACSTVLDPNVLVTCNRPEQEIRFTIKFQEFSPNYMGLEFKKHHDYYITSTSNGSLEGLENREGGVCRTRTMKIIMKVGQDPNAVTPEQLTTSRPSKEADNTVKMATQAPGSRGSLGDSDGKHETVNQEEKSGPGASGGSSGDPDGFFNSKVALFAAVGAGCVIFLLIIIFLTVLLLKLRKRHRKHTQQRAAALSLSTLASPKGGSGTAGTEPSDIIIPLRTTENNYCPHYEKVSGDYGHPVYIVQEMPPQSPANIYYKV
UniProt Q13011: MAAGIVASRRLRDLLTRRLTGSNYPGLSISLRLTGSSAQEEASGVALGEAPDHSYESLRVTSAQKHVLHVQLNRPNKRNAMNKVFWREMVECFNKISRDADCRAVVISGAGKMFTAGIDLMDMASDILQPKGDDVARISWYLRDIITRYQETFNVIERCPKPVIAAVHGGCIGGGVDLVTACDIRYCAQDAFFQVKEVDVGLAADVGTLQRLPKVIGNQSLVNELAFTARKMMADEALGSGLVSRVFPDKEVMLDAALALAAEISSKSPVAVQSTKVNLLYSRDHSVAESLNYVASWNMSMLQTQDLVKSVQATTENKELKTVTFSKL
UniProt Q16610: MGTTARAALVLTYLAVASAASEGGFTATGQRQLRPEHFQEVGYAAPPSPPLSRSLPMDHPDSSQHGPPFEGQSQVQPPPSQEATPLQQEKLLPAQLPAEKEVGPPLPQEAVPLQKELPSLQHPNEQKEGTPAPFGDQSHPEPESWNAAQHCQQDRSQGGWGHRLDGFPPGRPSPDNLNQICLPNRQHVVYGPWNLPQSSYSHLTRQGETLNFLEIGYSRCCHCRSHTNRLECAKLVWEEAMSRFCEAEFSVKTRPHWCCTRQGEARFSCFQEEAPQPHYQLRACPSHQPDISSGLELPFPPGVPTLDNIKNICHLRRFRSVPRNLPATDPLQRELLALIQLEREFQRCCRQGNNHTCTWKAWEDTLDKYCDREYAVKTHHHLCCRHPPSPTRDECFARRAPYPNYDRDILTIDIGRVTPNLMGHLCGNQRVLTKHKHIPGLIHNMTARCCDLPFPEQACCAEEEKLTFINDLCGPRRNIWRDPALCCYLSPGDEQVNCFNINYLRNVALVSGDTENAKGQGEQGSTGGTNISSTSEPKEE
UniProt Q6ZPD9: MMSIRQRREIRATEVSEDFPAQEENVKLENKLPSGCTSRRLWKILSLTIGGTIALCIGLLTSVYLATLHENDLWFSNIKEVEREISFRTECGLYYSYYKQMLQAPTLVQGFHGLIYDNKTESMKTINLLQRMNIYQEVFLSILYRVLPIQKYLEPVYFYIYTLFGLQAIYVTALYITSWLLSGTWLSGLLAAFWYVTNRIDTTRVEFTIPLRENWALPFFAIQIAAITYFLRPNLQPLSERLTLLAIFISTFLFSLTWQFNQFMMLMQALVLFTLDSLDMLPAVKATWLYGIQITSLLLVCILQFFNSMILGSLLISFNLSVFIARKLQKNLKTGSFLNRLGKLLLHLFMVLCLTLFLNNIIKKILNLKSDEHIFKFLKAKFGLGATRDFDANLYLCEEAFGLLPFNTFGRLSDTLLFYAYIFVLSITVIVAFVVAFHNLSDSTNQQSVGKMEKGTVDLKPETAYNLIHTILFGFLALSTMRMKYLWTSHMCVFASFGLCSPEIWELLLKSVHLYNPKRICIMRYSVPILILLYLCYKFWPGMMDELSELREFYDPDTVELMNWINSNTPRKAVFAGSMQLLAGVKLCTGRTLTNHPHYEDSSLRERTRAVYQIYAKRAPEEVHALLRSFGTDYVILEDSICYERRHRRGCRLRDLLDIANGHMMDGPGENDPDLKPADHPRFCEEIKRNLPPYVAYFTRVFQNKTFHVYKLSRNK
UniProt Q3B7T1: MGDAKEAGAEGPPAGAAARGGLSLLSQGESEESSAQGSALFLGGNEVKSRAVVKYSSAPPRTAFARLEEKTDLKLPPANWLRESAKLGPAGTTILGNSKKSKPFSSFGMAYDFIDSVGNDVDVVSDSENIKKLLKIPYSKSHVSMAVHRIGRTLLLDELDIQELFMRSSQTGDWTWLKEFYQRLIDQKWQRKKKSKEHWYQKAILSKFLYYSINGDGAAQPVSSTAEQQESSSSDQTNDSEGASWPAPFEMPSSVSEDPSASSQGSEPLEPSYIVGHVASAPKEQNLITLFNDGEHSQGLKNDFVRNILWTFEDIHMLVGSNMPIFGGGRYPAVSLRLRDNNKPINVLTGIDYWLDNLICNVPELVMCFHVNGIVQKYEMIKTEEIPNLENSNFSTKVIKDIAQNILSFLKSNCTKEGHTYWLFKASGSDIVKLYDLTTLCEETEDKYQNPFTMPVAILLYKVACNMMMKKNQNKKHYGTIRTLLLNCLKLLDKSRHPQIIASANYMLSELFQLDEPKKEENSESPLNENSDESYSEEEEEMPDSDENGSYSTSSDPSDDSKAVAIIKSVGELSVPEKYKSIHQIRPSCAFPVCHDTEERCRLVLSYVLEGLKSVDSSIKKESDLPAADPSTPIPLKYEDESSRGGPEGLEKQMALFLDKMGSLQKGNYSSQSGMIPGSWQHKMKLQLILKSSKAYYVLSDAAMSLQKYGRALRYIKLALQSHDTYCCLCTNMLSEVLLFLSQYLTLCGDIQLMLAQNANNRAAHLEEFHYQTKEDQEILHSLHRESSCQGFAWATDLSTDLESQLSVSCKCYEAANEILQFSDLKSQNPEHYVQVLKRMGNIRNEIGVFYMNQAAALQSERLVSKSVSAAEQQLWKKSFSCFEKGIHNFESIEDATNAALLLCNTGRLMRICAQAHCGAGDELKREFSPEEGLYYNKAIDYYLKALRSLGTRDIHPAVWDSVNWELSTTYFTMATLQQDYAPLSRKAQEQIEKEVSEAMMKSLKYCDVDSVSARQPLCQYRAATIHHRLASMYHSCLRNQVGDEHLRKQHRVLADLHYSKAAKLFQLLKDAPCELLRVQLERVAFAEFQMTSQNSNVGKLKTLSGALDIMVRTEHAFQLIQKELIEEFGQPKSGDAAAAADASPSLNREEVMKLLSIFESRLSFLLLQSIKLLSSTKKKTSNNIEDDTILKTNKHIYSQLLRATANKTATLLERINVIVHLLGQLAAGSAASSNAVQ
UniProt Q96EV8: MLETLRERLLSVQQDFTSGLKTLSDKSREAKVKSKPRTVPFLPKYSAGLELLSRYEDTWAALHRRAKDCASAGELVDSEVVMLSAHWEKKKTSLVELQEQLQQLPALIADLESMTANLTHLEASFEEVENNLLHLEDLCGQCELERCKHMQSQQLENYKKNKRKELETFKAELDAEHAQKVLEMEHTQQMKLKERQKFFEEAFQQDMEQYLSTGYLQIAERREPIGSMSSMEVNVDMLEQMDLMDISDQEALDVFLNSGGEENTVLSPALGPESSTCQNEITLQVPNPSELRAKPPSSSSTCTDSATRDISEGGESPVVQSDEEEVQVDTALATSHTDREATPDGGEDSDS
UniProt Q5JPH6: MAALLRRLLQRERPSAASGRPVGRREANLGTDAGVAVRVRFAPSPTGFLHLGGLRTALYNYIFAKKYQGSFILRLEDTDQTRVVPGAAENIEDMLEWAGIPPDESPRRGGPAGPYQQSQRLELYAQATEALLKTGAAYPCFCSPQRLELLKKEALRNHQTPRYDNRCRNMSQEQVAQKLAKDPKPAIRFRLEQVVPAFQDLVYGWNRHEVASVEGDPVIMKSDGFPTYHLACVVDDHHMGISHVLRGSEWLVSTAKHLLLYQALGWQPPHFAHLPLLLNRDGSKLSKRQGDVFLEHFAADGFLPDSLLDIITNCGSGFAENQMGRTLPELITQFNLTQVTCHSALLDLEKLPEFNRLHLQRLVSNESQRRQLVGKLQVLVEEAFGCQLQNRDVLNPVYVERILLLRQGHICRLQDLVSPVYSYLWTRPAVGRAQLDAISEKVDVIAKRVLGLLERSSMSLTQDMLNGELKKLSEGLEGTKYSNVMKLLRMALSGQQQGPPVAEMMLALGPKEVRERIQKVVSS
UniProt Q99848: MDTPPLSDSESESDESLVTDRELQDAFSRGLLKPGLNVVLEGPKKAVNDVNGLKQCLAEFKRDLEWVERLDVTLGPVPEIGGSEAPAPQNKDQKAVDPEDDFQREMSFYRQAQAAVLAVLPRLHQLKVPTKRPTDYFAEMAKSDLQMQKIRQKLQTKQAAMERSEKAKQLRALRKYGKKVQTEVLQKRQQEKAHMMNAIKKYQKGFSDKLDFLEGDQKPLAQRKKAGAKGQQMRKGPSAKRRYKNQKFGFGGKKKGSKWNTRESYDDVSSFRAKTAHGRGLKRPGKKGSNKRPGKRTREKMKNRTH
UniProt Q9BV94: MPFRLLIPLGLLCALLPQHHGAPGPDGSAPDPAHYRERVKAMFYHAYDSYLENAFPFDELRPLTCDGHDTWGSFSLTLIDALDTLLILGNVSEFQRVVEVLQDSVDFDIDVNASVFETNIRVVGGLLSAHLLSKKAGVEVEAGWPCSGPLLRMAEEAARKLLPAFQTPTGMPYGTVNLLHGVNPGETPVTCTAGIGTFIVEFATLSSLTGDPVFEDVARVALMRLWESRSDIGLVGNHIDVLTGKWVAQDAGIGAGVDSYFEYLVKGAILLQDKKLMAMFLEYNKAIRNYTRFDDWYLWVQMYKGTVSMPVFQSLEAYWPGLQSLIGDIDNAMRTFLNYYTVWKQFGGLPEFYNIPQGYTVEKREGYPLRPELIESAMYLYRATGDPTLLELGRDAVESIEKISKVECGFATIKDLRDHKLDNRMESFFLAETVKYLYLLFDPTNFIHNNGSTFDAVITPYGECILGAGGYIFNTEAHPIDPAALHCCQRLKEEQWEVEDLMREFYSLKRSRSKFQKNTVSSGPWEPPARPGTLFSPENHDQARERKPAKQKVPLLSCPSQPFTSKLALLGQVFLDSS
UniProt Q7Z2Z2: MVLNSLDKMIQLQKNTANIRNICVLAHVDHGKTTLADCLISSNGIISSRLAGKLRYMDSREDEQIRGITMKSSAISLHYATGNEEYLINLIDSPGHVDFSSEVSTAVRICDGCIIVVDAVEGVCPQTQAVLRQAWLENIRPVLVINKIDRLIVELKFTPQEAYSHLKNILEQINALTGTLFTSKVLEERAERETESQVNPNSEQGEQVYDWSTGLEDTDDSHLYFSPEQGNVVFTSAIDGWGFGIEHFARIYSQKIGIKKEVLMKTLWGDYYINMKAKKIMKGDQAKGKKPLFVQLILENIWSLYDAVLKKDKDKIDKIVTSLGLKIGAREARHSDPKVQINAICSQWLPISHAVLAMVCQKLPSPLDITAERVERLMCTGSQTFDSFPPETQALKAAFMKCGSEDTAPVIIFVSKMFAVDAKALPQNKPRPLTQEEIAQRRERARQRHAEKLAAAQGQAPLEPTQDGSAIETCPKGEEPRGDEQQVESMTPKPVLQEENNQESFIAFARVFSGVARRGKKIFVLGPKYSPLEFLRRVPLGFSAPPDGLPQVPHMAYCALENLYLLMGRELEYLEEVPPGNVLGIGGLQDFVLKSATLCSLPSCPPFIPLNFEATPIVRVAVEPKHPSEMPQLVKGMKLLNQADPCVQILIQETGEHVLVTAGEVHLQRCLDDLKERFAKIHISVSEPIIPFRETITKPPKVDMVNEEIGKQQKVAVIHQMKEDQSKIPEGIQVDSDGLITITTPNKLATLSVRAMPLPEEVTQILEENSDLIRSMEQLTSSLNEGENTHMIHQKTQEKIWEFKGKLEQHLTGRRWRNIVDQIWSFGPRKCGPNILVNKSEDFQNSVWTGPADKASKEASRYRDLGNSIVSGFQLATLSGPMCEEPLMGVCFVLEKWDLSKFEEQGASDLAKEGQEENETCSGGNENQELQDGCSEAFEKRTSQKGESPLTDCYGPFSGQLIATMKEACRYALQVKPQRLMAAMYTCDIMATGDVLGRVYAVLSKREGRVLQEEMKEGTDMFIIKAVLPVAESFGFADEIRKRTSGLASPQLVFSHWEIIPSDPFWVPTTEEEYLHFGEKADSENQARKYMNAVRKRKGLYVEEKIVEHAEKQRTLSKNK
UniProt O43237, whole entry, looked up: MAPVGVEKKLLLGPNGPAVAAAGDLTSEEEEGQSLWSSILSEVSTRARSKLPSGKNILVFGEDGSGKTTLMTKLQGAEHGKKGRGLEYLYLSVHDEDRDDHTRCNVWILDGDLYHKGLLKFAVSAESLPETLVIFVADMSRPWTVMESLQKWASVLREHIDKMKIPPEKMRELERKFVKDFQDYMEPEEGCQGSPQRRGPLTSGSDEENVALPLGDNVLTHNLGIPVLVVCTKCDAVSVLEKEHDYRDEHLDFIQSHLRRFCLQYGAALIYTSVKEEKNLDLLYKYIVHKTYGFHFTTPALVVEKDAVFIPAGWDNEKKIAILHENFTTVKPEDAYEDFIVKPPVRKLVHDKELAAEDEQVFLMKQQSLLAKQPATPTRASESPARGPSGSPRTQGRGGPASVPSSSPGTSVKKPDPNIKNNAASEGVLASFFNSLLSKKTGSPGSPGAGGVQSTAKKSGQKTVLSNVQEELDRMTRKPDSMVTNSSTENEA

What was measured:
Assay in all cases: log2 fold change, soluble protein after heating vs DMSO (PISA); higher = thermal stabilisation; K562 lysate, 10 uM; active = over 0.2 and 3.5 SD of the protein, either way, in both replicates (recomputed)
[1] = compound: NCC(=O)Nc1ccc(-n2nc(C(F)(F)F)cc2-c2ccc3c(ccc4ccccc43)c2)cc1
Method in brief: (§1)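 To prepare the extract, K562 pellets were dounce-homogenised in PBS pH 7.4 with 1 mM MgCl2, giving crude material at 1 mg/mL protein. This was treated with 10 μM compound for 30 min, then heated in aliquots for 3 min over 48°C-58°C before pooling and addition of NP-40 to 0.5% at 4°C. Centrifugation at 21,000xg for 90 min left soluble protein in the supernatant, which TMTpro 16plex LC-MS/MS quantified with equalised channel sums. Results are log-two fold changes in thermal stability compared with solvent controls, from duplicates.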

vorinostat = compound: O=C(CCCCCCC(=O)Nc1ccccc1)NO [vorinostat]
Method in brief: as §1

silmitasertib = compound: O=C(O)c1ccc2c(c1)nc(Nc1cccc(Cl)c1)c1ccncc12 [silmitasertib]
Method in brief: as §1

[2] = compound: O=C1NC(=O)C(c2cnc3ccccn23)=C1c1cn2c3c(cc(F)cc13)CN(C(=O)N1CCCCC1)CC2
Method in brief: as §1

entospletinib = compound: c1cn2cc(-c3ccc4cn[nH]c4c3)nc(Nc3ccc(N4CCOCC4)cc3)c2n1 [entospletinib]
Method in brief: as §1

Target	log2 fold change [1]	log2 fold change (vorinostat)	log2 fold change (silmitasertib)	log2 fold change [2]	log2 fold change (entospletinib)
EFNB1 (UniProt P98172)	inactive: -0.077	inactive: 0.145	inactive: -0.047	inactive: -0.048	inactive: -0.038
DUS4L (UniProt O95620)	inactive: -0.041	inactive: 0.014	inactive: 0.072	inactive: 0.029	inactive: -0.01
ECH1 (UniProt Q13011)	inactive: 0.041	inactive: 0.081	inactive: -0.026	inactive: -0.052	inactive: 0.022
ECHS1 (UniProt P30084)	inactive: -0.011	inactive: -0.055	inactive: 0.036	inactive: -0.018	inactive: 0.025
DTYMK (UniProt P23919)	inactive: -0.022	active: -0.294	inactive: 0.071	inactive: -0.023	inactive: 0.061
EHBP1 isoform 2 (UniProt Q8NDI1)	inactive: -0.046	inactive: -0.012	inactive: 0.02	inactive: -0.005	inactive: -0.02
EEF1A1, A0A087WVQ9	inactive: -0.025	active: -0.541	inactive: -0.002	inactive: -0.022	inactive: 0.015
DSC2 (UniProt Q02487)	inactive: -0.029	inactive: 0.146	inactive: 0.07	inactive: -0.115	inactive: 0.133
EDARADD (UniProt Q8WWZ3)	inactive: 0.022	inactive: -0.168	inactive: 0.02	inactive: -0.05	inactive: -0.057
DTL (UniProt Q9NZJ0)	inactive: -0.011	inactive: -0.165	inactive: -0.042	inactive: 0.052	–
EIF1AX (UniProt P47813)	inactive: 0.025	inactive: 0.047	inactive: 0.06	inactive: 0.012	inactive: 0.038
ECM1 isoform 4 (UniProt Q16610)	inactive: -0.022	inactive: 0.045	inactive: -0.022	inactive: 0.059	inactive: -0.025
EGFL7 (UniProt Q9UHF1)	inactive: -0.189	–	–	–	–
EEF2KMT (UniProt Q96G04)	inactive: -0.315	inactive: -0.059	inactive: -0.077	inactive: 0.126	inactive: 0.029
EIF1B (UniProt O60739)	inactive: 0.135	inactive: 0.066	inactive: 0.085	inactive: 0.313	inactive: -0.146
DYNC1I2 isoform 5 (UniProt Q13409)	inactive: 0.009	inactive: 0.126	inactive: 0.03	inactive: -0.005	inactive: -0.007
E4F1 (UniProt Q66K89)	inactive: 0.042	inactive: 0.069	inactive: 0.097	inactive: 0.177	–
EHD4 (UniProt Q9H223)	inactive: 0.036	inactive: -0.149	inactive: 0.076	inactive: 0.029	inactive: -0.012
EDEM3 (UniProt Q9BZQ6)	inactive: 0.022	inactive: 0.016	inactive: -0.047	inactive: -0.036	inactive: -0.045
DPP9 isoform 2 (UniProt Q86TI2)	inactive: 0.004	inactive: -0.09	inactive: -0.002	inactive: 0	inactive: 0.013
DPY19L3 (UniProt Q6ZPD9)	inactive: -0.085	inactive: 0.219	inactive: 0.108	inactive: 0.035	inactive: -0.024
DUSP22 isoform 2 (UniProt Q9NRW4)	inactive: -0.025	inactive: -0.102	inactive: 0.002	–	–
DSTN (UniProt P60981)	inactive: -0.012	active: -0.34	inactive: 0.014	inactive: -0.031	inactive: -0.021
DTX3L (UniProt Q8TDB6)	inactive: 0.002	inactive: -0.067	inactive: -0.017	inactive: -0.039	inactive: 0.088
ECI2 (UniProt O75521)	inactive: 0.08	inactive: 0.146	inactive: 0.022	active: 0.284	inactive: -0.033
EDRF1 (UniProt Q3B7T1)	inactive: 0.05	inactive: -0.021	inactive: -0.001	inactive: -0.019	inactive: -0.071
DTNBP1 (UniProt Q96EV8)	inactive: -0.018	inactive: 0.015	inactive: 0	inactive: 0.016	inactive: -0.04

Target	log2 fold change [1]	log2 fold change (vorinostat)	log2 fold change (silmitasertib)	log2 fold change [2]	log2 fold change (entospletinib)
EARS2 (UniProt Q5JPH6)	inactive: 0.034	inactive: -0.184	inactive: -0.046	inactive: 0.013	inactive: -0.13
ECSIT (UniProt Q9BQ95)	inactive: 0.017	inactive: 0.137	inactive: -0.004	inactive: -0.041	inactive: 0.068
DPP3 (UniProt Q9NY33)	inactive: -0.024	inactive: 0.095	inactive: 0.021	inactive: 0.042	inactive: 0.002
EAPP (UniProt Q56P03)	inactive: -0.083	inactive: 0.029	inactive: -0.086	inactive: 0.024	inactive: 0.024
DPY19L1, A0A1B0GW05	inactive: -0.04	inactive: 0.148	inactive: -0.018	inactive: 0.025	inactive: -0.024
DUS3L (UniProt Q96G46)	inactive: 0.002	inactive: -0.08	inactive: 0.036	inactive: -0.007	inactive: 0.014
DYNLT1 (UniProt P63172)	inactive: 0.061	inactive: -0.112	inactive: 0.038	inactive: 0.037	inactive: -0.045
EBNA1BP2 (UniProt Q99848)	inactive: -0.017	inactive: 0.11	inactive: 0.009	inactive: 0.028	inactive: 0.016
DUSP23 (UniProt Q9BVJ7)	inactive: -0.094	inactive: 0.016	inactive: 0.038	inactive: -0.021	inactive: -0.087
DPM1 (UniProt O60762)	inactive: 0.05	inactive: -0.01	inactive: -0.016	inactive: -0.011	inactive: 0.02
DYNC1I2 isoform 2 (UniProt Q13409)	inactive: 0.138	inactive: 0.07	inactive: 0.008	inactive: 0.054	inactive: 0.039
EDEM2 (UniProt Q9BV94)	inactive: -0.017	inactive: 0.041	inactive: 0.064	inactive: -0.195	inactive: -0.051
DTWD1 (UniProt Q8N5C7)	inactive: 0.059	active: -0.27	inactive: -0.022	inactive: -0.028	inactive: 0.036
EBAG9 isoform 2 (UniProt O00559)	inactive: 0.04	inactive: 0.218	inactive: -0.102	inactive: 0.096	inactive: 0
EFL1 (UniProt Q7Z2Z2)	inactive: 0.01	inactive: -0.105	inactive: 0.015	inactive: -0.003	inactive: 0.009
ECHDC3 (UniProt Q96DC8)	inactive: -0.073	inactive: 0.062	inactive: 0.011	inactive: -0.068	inactive: 0.053
EEF1A1P5 (UniProt Q5VTE0)	inactive: 0.04	active: -0.311	inactive: -0.017	inactive: 0.005	inactive: 0.033
DPY19L4 (UniProt Q7Z388)	inactive: 0.067	inactive: -0.019	inactive: -0.143	inactive: -0.019	inactive: 0.092
DPF2 (UniProt Q92785)	inactive: 0.015	inactive: 0.041	inactive: -0.042	inactive: -0.019	inactive: -0.059
DPH1 (UniProt Q9BZG8)	inactive: -0.019	inactive: 0.064	inactive: 0	inactive: 0.001	inactive: -0.021
EHMT2 (UniProt A2ABF8)	inactive: -0.027	inactive: -0.128	inactive: 0.015	inactive: -0.009	inactive: -0.017
DXO (UniProt O77932)	inactive: 0.026	inactive: -0.044	inactive: -0.028	inactive: 0.083	inactive: -0.001
DYNC1LI2 (UniProt O43237)	inactive: 0.037	inactive: 0.097	inactive: -0.071	inactive: 0.031	inactive: -0.032
EIF2A (UniProt Q9BY44)	inactive: -0.001	inactive: 0.114	inactive: -0.027	inactive: 0.004	inactive: 0.015
EEF1B2 (UniProt P24534)	inactive: 0.004	inactive: 0.075	inactive: 0.004	inactive: -0.021	inactive: 0.005
EIF1AD (UniProt Q8N9N8)	inactive: -0.038	inactive: 0.003	inactive: -0.007	inactive: -0.005	inactive: -0.009
EEFSEC (UniProt P57772)	inactive: -0.022	active: -0.325	inactive: 0.052	inactive: -0.012	inactive: -0.009

Reformatted field by field: entries from further up
DTNBP1 (UniProt Q96EV8)
  log2 fold change [1]: inactive: -0.018
  log2 fold change (vorinostat): inactive: 0.015
  log2 fold change (silmitasertib): inactive: 0
  log2 fold change [2]: inactive: 0.016
  log2 fold change (entospletinib): inactive: -0.04
EARS2 (UniProt Q5JPH6)
  log2 fold change [1]: inactive: 0.034
  log2 fold change (vorinostat): inactive: -0.184
  log2 fold change (silmitasertib): inactive: -0.046
  log2 fold change [2]: inactive: 0.013
  log2 fold change (entospletinib): inactive: -0.13
